Experimental data taken from the supplement of paper PMC10849652.
Some of the results follow.

Protein sequences, listed by entry. Tags and fused reporters are not part of them. Lines headed by an entry give the natural chain unless they say otherwise; changes in a name come on top.
UniProt P13798: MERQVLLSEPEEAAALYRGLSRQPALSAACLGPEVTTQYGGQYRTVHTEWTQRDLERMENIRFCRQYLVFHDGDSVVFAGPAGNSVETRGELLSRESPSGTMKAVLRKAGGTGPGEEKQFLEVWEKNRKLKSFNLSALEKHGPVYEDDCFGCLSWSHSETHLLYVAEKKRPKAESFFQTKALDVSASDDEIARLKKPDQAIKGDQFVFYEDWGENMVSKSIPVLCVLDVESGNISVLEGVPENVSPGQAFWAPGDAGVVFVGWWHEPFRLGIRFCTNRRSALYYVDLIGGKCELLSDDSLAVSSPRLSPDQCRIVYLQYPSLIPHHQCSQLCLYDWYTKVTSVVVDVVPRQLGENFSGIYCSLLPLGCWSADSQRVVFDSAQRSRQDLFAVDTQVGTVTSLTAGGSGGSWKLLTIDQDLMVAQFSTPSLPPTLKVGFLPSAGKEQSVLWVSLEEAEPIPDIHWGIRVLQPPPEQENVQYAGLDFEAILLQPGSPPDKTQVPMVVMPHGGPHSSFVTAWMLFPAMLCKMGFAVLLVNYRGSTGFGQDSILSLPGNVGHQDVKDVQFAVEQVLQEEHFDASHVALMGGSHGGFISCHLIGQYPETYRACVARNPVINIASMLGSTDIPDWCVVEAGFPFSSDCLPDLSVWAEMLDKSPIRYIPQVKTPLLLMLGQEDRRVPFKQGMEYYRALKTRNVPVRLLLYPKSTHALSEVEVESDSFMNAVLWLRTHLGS
UniProt P27695, whole entry, looked up: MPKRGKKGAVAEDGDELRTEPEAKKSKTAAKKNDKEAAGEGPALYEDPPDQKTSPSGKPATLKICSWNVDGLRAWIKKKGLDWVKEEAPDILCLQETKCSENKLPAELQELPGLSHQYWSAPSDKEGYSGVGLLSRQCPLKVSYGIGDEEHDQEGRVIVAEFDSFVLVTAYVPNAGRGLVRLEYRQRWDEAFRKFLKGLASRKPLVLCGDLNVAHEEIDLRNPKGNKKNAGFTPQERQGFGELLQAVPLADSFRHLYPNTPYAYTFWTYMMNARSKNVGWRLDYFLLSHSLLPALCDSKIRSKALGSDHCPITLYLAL
UniProt Q9NXU5: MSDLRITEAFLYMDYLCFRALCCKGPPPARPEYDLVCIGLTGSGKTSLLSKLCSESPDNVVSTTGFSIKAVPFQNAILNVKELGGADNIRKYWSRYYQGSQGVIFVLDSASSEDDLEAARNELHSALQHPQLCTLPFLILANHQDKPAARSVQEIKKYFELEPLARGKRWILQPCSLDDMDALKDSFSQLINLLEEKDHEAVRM
UniProt Q66PJ3: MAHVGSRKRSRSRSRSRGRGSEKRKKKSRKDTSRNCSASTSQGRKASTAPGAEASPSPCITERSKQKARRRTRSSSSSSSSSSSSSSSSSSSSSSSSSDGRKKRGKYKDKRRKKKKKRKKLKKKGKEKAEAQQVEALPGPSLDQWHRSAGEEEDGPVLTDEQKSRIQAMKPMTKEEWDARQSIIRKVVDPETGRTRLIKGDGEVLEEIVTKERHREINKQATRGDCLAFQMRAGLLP
UniProt P18085: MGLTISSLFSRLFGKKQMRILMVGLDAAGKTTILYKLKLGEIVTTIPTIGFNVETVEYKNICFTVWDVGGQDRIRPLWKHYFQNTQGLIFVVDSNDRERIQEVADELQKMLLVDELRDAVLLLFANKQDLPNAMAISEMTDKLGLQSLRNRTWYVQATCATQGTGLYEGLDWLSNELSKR
UniProt Q8IWW6: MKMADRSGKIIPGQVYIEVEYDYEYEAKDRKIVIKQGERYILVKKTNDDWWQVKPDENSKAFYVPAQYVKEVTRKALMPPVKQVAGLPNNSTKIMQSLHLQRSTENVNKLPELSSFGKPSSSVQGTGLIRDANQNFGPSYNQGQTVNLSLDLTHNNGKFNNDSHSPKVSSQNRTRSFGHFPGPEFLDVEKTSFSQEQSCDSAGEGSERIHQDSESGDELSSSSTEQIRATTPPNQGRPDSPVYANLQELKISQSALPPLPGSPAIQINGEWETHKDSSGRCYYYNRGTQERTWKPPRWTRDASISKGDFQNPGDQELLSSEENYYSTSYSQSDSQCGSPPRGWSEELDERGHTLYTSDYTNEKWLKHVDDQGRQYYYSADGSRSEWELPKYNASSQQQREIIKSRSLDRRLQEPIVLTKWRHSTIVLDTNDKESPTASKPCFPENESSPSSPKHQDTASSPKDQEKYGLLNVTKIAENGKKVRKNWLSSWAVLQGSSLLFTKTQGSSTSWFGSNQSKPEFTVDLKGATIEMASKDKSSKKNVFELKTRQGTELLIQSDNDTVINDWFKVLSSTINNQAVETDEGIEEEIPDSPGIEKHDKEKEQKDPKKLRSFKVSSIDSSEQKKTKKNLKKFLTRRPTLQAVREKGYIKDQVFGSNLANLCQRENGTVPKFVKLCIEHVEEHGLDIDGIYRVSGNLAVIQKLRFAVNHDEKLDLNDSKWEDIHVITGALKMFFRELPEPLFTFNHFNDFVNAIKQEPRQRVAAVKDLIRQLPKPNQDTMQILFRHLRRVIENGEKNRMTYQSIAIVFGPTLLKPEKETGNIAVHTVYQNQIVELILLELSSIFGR
UniProt Q14155: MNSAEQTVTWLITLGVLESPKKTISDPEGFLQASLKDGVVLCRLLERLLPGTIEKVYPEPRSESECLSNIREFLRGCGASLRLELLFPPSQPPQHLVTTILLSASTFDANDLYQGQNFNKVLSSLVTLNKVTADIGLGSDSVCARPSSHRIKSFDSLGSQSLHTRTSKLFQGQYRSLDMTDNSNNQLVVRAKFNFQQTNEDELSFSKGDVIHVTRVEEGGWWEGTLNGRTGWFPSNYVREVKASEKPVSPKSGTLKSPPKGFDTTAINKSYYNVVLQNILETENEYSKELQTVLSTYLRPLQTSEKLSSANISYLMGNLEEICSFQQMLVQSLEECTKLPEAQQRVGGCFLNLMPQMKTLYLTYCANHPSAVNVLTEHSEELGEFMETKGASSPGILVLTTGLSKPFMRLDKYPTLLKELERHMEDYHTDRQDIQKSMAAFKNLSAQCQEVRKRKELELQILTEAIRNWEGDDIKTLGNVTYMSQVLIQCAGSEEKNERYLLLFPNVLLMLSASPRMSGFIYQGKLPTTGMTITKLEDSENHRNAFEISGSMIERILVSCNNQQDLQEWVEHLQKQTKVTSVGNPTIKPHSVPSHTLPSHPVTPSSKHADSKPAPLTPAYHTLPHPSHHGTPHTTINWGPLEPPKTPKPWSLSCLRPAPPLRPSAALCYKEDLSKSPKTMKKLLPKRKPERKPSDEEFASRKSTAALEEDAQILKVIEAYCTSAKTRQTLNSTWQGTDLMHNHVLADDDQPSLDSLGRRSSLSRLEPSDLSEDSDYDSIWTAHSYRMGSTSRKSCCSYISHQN
UniProt Q96P48: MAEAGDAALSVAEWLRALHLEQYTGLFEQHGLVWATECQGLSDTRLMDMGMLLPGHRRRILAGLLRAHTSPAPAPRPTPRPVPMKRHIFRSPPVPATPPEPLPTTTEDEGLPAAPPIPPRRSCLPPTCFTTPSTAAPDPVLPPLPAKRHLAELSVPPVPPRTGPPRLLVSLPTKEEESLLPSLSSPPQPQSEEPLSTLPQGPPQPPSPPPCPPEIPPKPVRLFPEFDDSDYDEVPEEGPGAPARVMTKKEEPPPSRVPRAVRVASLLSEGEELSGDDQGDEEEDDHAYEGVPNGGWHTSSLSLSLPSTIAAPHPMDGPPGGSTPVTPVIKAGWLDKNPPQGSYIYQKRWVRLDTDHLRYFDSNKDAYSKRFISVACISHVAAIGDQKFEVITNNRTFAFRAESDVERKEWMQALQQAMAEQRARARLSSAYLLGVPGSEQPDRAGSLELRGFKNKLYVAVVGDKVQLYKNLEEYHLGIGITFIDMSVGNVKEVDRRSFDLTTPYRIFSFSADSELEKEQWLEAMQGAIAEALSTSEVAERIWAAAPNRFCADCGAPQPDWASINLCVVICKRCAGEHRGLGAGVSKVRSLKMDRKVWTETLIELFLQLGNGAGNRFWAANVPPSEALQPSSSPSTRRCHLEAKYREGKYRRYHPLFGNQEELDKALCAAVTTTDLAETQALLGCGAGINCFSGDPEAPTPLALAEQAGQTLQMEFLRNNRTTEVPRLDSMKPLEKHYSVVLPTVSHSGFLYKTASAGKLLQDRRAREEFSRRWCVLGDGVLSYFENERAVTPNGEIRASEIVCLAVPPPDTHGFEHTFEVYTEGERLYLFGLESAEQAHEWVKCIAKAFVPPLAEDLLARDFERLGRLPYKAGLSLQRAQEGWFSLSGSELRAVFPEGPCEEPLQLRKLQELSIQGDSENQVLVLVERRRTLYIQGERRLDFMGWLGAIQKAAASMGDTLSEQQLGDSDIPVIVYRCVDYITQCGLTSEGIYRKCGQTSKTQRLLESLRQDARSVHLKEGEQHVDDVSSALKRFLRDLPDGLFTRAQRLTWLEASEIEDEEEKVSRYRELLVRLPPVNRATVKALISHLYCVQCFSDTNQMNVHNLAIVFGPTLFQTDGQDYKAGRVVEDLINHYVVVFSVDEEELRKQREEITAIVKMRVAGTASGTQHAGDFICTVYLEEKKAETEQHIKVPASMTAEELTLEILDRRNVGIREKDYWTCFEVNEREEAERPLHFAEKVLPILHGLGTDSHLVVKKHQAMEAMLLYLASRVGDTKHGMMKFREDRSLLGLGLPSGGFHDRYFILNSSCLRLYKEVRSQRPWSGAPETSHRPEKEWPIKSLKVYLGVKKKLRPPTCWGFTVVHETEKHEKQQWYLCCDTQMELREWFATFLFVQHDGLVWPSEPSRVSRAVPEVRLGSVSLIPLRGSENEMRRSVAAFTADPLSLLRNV
UniProt P98171: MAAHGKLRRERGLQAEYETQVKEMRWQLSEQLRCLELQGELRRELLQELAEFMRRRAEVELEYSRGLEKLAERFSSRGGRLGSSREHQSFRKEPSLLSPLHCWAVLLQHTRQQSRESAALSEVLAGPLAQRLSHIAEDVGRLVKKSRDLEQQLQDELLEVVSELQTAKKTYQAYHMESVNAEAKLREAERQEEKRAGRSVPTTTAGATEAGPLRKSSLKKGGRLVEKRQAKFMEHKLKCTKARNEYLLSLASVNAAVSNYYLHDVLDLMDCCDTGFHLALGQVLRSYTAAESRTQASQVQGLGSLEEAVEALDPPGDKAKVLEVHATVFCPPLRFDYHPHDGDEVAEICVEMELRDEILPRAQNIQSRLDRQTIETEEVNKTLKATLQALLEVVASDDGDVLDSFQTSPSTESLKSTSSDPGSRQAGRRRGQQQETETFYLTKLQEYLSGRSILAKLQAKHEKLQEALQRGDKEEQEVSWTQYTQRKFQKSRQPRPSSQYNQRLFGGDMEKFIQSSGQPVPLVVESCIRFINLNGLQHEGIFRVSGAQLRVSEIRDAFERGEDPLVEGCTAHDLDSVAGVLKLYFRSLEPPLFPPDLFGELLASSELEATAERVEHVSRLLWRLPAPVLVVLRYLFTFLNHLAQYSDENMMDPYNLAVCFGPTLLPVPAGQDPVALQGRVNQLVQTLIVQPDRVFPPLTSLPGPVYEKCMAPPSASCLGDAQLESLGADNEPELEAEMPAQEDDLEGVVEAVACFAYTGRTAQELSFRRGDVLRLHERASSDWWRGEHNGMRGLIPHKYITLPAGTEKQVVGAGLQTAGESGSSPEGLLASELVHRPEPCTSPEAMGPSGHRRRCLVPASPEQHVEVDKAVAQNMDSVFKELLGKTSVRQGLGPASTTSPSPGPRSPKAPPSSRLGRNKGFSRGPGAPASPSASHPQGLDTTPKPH
UniProt Q9NWB6: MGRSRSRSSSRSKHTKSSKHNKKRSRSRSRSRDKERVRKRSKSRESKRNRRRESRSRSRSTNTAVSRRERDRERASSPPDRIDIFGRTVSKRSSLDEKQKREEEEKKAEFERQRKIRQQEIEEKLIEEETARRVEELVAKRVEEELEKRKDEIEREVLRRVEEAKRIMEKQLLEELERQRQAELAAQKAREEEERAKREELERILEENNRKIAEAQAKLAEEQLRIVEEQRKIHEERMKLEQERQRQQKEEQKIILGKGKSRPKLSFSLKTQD
UniProt P36404: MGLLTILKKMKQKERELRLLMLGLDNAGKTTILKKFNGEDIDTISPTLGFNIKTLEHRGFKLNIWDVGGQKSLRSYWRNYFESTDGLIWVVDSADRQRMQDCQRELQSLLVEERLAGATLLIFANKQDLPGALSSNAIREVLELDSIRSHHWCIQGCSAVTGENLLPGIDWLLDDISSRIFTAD
UniProt Q9NVJ2: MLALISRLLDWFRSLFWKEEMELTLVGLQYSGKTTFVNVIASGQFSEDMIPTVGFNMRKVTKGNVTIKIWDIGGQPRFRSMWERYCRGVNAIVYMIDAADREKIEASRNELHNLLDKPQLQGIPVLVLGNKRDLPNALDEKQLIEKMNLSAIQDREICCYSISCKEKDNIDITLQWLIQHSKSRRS

Assays:
Test in all cases: log2 fold change, soluble protein after heating vs DMSO (PISA); higher = thermal stabilisation; K562 lysate, 10 uM; active = over 0.2 and 3.5 SD of the protein, either way, in both replicates (recomputed)
[1] = compound: CS(=O)(=O)CCNCc1ccc(-c2ccc3ncnc(Nc4ccc(OCc5cccc(F)c5)c(Cl)c4)c3c2)o1 [lapatinib]
Summary of the method: (§1)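 K562 pellets were dounce-homogenised in PBS pH 7.4 containing 1 mM MgCl2, and the crude extract, at 1 mg/mL protein, was exposed to 10 μM compound for 30 min. Aliquots were heated for 3 min across 48°C-58°C, pooled, brought to 0.5% NP-40 at 4°C and spun at 21,000xg for 90 min, with the supernatant taken as soluble protein. TMTpro 16plex LC-MS/MS with equalised channel sums quantified that protein. Values are log-two fold changes in thermal stability relative to solvent controls, taken from duplicates.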

[2] = compound: CS(=O)(=O)N1CCN(Cc2cc3nc(-c4cccc5[nH]ncc45)nc(N4CCOCC4)c3s2)CC1 [pictilisib]
Summary of the method: as §1

[3] = compound: C[C@@H](Oc1cc(-c2cnn(C3CCNCC3)c2)cnc1N)c1c(Cl)ccc(F)c1Cl [crizotinib]
Summary of the method: as §1

[4] = compound: C[C@H](C1=CC=C(C=C1)C(=O)NC2=C3C=CNC3=NC=C2)N
Summary of the method: as §1

[5] = compound: C[C@H](Nc1ncnc2nc[nH]c12)c1cc2cccc(Cl)c2c(=O)n1-c1ccccc1 [duvelisib]
Summary of the method: as §1

[6] = compound: Cc1cc(Nc2cc(CN3CCOCC3)c3nc(C)c(Cc4ccc(Cl)cc4F)n3n2)n[nH]1 [gandotinib]
Summary of the method: as §1

[7] = compound: Cc1cc(Nc2cc(N3CCN(C)CC3)nc(Sc3ccc(NC(=O)C4CC4)cc3)n2)n[nH]1 [tozasertib]
Summary of the method: as §1

[8] = compound: Cc1ccc(-n2nc(C(C)(C)C)cc2NC(=O)Nc2ccc(OCCN3CCOCC3)c3ccccc23)cc1 [doramapimod]
Summary of the method: as §1

[9] = compound: Cc1ccc(NC(=O)c2ccc(CN3CC[C@H](N(C)C)C3)c(C(F)(F)F)c2)cc1Nc1nccc(-c2cncnc2)n1 [bafetinib]
Summary of the method: as §1

[10] = compound: Cc1cccc(CC(=O)N2CCc3c2ccc(-c2cn(C)c4ncnc(N)c24)c3F)n1
Summary of the method: as §1

[11] = compound: Cc1cn(-c2cc(NC(=O)c3ccc(C)c(Nc4nccc(-c5cccnc5)n4)c3)cc(C(F)(F)F)c2)cn1 [nilotinib]
Summary of the method: as §1

[12] = compound: Cc1nc(Nc2n[nH]c3c2CN(C(=O)N[C@H](CN(C)C)c2ccccc2)C3(C)C)c2sccc2n1
Summary of the method: as §1

[13] = compound: Cc1nc(Nc2ncc(C(=O)Nc3c(C)cccc3Cl)s2)cc(N2CCN(CCO)CC2)n1 [dasatinib]
Summary of the method: as §1

[14] = compound: Cc1ncc(-c2ccnc(Nc3ccc(S(C)(=O)=O)cc3)n2)n1C(C)C
Summary of the method: as §1

[15] = compound: Cn1cc(-c2ccc3c(c2)CCN3C(=O)Cc2cccc(C(F)(F)F)c2)c2c(N)ncnc21
Summary of the method: as §1

[16] = compound: Cn1cc(CNCC2CCN(c3ncc(C(=O)NO)cn3)CC2)c2ccccc21 [quisinostat]
Summary of the method: as §1

[17] = compound: Cn1cncc1[C@@](N)(c1ccc(Cl)cc1)c1ccc2c(c1)c(-c1cccc(Cl)c1)cc(=O)n2C [tipifarnib]
Summary of the method: as §1

[18] = compound: NC(=O)Nc1cc(-c2cccc(F)c2)sc1C(=O)N[C@H]1CCCNC1
Summary of the method: as §1

[19] = compound: NC(=O)c1cnc(N[C@@H]2CCCC[C@@H]2N)nc1Nc1cccc(-n2nccn2)c1
Summary of the method: as §1

[20] = compound: NC1(c2ccc(-c3nc4ccn5c(=O)[nH]nc5c4cc3-c3ccccc3)cc2)CCC1
Summary of the method: as §1

Target	log2 fold change [1]	log2 fold change [2]	log2 fold change [3]	log2 fold change [4]	log2 fold change [5]	log2 fold change [6]	log2 fold change [7]	log2 fold change [8]	log2 fold change [9]	log2 fold change [10]	log2 fold change [11]	log2 fold change [12]	log2 fold change [13]	log2 fold change [14]	log2 fold change [15]	log2 fold change [16]	log2 fold change [17]	log2 fold change [18]	log2 fold change [19]	log2 fold change [20]
APEH (UniProt P13798)	inactive: -0.026	inactive: -0.023	inactive: 0.043	inactive: 0.023	inactive: 0.016	inactive: 0.022	inactive: -0.01	inactive: -0.003	inactive: 0.015	inactive: -0.04	inactive: 0.015	inactive: -0.007	inactive: -0.003	inactive: -0.006	inactive: 0.014	inactive: 0.021	inactive: 0.008	inactive: -0.032	inactive: -0.004	inactive: 0.013
APEX1 (UniProt P27695)	inactive: 0.022	inactive: 0.039	inactive: -0.01	active: 0.352	inactive: -0.025	inactive: -0.042	inactive: -0.029	inactive: -0.045	inactive: 0.106	inactive: -0.067	inactive: 0.045	inactive: -0.037	inactive: 0.002	inactive: -0.027	inactive: 0.018	inactive: 0.016	inactive: 0.001	inactive: 0.021	inactive: -0.011	inactive: -0.008
ARPC5 (UniProt O15511)	inactive: -0.043	inactive: -0.001	inactive: 0.033	inactive: -0.036	inactive: 0	inactive: 0.03	inactive: 0.029	inactive: -0.008	inactive: -0.001	inactive: -0.004	inactive: -0.022	inactive: 0.015	inactive: 0	inactive: 0.027	inactive: 0.024	inactive: 0.009	inactive: -0.003	inactive: -0.022	inactive: -0.019	inactive: 0.008
ARL15 (UniProt Q9NXU5)	inactive: -0.001	inactive: 0.097	inactive: 0	active: 0.682	inactive: -0.004	inactive: -0.098	inactive: 0.023	inactive: 0.06	inactive: 0.225	inactive: -0.118	inactive: -0.008	inactive: 0.021	inactive: -0.063	inactive: -0.046	inactive: 0.036	inactive: 0.024	inactive: 0.031	inactive: -0.034	inactive: 0.021	inactive: 0.022
ARMC10 (UniProt Q8N2F6)	inactive: -0.011	inactive: 0.047	inactive: -0.047	inactive: -0.007	inactive: -0.022	inactive: -0.096	inactive: -0.002	inactive: -0.01	inactive: 0.087	inactive: 0.012	inactive: 0.02	inactive: -0.084	inactive: -0.04	inactive: 0	inactive: -0.007	inactive: -0.012	inactive: 0.079	inactive: 0.046	inactive: -0.025	inactive: -0.003
APBA2 (UniProt Q99767)	inactive: -0.009	inactive: -0.086	inactive: -0.06	inactive: -0.167	inactive: -0.048	inactive: 0.122	inactive: -0.013	inactive: -0.009	inactive: -0.016	inactive: 0.148	inactive: -0.031	inactive: -0.025	inactive: -0.034	inactive: 0.021	inactive: 0.042	inactive: -0.021	inactive: 0.041	inactive: 0.063	inactive: 0	inactive: -0.026
ARL6IP4 (UniProt Q66PJ3)	inactive: 0.018	inactive: 0.033	inactive: 0.085	inactive: -0.094	inactive: -0.02	inactive: 0.09	inactive: -0.06	inactive: -0.014	inactive: 0.041	inactive: -0.044	inactive: -0.002	inactive: 0.003	inactive: 0.022	inactive: 0.068	inactive: -0.039	inactive: 0.042	inactive: 0.004	inactive: -0.004	inactive: -0.018	inactive: -0.037
ARF4 (UniProt P18085)	inactive: 0.012	inactive: 0.003	inactive: -0.032	inactive: -0.121	inactive: 0.05	inactive: 0.078	inactive: 0.053	inactive: 0.189	inactive: -0.019	inactive: 0.1	inactive: 0.01	inactive: -0.03	inactive: -0.023	inactive: 0.018	inactive: 0.009	inactive: -0.154	inactive: -0.053	inactive: -0.015	inactive: 0.011	inactive: -0.012
ARHGAP12 (UniProt Q8IWW6)	inactive: 0.062	inactive: -0.043	inactive: -0.026	inactive: -0.16	inactive: -0.014	inactive: 0.205	inactive: -0.076	inactive: -0.008	inactive: 0.015	inactive: 0.15	inactive: -0.055	inactive: -0.091	inactive: 0.072	inactive: 0.013	inactive: -0.035	inactive: -0.064	inactive: -0.018	inactive: 0.034	inactive: 0.049	inactive: -0.174
ARPC3 (UniProt O15145)	inactive: 0.042	inactive: -0.039	inactive: 0.043	inactive: 0.073	inactive: -0.026	inactive: -0.067	inactive: 0.009	inactive: -0.03	inactive: 0.053	inactive: -0.099	inactive: 0.06	inactive: -0.046	inactive: 0.02	inactive: -0.046	inactive: 0.001	inactive: 0.078	inactive: 0.054	inactive: 0.009	inactive: 0.002	inactive: 0.027
ARHGEF7 isoform 5 (UniProt Q14155)	inactive: 0.027	inactive: -0.031	inactive: 0.035	inactive: 0.018	inactive: -0.03	inactive: -0.025	inactive: 0.012	inactive: 0.001	inactive: 0.01	inactive: 0.018	inactive: 0.004	inactive: 0.009	inactive: -0.022	inactive: 0.013	inactive: 0.005	inactive: 0.004	inactive: 0.014	inactive: -0.008	inactive: 0.04	inactive: -0.019
ARAP1 (UniProt Q96P48)	inactive: -0.022	inactive: -0.046	inactive: -0.065	inactive: -0.03	inactive: -0.002	inactive: 0.014	inactive: -0.005	inactive: 0.063	inactive: -0.016	inactive: 0.034	inactive: -0.009	inactive: -0.029	inactive: -0.036	inactive: -0.032	inactive: 0.013	inactive: -0.072	inactive: -0.041	inactive: 0.029	inactive: 0.006	inactive: 0.003
ARHGAP4 isoform 2 (UniProt P98171)	inactive: -0.007	inactive: -0.03	inactive: -0.025	inactive: 0.003	inactive: 0.017	inactive: -0.044	inactive: -0.044	inactive: -0.011	inactive: 0.003	inactive: 0.037	inactive: -0.004	inactive: 0.001	inactive: -0.012	inactive: 0.026	inactive: 0.065	inactive: -0.028	inactive: -0.007	inactive: 0.06	inactive: -0.025	inactive: -0.011
ARGLU1 (UniProt Q9NWB6)	inactive: 0.038	inactive: 0.013	inactive: 0.043	inactive: -0.062	inactive: -0.023	inactive: -0.119	inactive: 0.045	inactive: 0.019	inactive: -0.014	inactive: 0.013	inactive: -0.012	inactive: -0.007	inactive: 0.058	inactive: -0.018	inactive: 0.096	inactive: 0.022	inactive: -0.043	inactive: -0.133	inactive: -0.012	inactive: 0.016
ARL2 (UniProt P36404)	inactive: -0.043	inactive: -0.042	inactive: -0.03	inactive: -0.008	inactive: -0.003	inactive: -0.055	inactive: 0.046	inactive: 0.059	inactive: -0.069	inactive: 0.002	inactive: 0.038	inactive: -0.002	inactive: -0.029	inactive: -0.01	inactive: 0.025	inactive: -0.003	inactive: 0.011	inactive: 0.021	inactive: 0.017	inactive: 0.007
ARL8B (UniProt Q9NVJ2)	inactive: 0.022	inactive: 0.005	inactive: -0.033	inactive: -0.09	inactive: 0.044	inactive: 0.064	inactive: -0.046	inactive: 0.057	inactive: 0.051	inactive: 0.127	inactive: 0.014	inactive: -0.005	inactive: 0.001	inactive: -0.01	inactive: -0.015	inactive: -0.019	inactive: -0.033	inactive: -0.011	inactive: -0.021	inactive: -0.023

Full records as entered above. Values in the order: log2 fold change [1]	log2 fold change [2]	log2 fold change [3]	log2 fold change [4]	log2 fold change [5]	log2 fold change [6]	log2 fold change [7]	log2 fold change [8]	log2 fold change [9]	log2 fold change [10]	log2 fold change [11]	log2 fold change [12]	log2 fold change [13]	log2 fold change [14]	log2 fold change [15]	log2 fold change [16]	log2 fold change [17]	log2 fold change [18]	log2 fold change [19]	log2 fold change [20]
ARHGEF7 isoform 5 (UniProt Q14155) in the list: inactive: 0.027	inactive: -0.031	inactive: 0.035	inactive: 0.018	inactive: -0.03	inactive: -0.025	inactive: 0.012	inactive: 0.001	inactive: 0.01	inactive: 0.018	inactive: 0.004	inactive: 0.009	inactive: -0.022	inactive: 0.013	inactive: 0.005	inactive: 0.004	inactive: 0.014	inactive: -0.008	inactive: 0.04	inactive: -0.019
ARPC5 (UniProt O15511) in the list: inactive: -0.043	inactive: -0.001	inactive: 0.033	inactive: -0.036	inactive: 0	inactive: 0.03	inactive: 0.029	inactive: -0.008	inactive: -0.001	inactive: -0.004	inactive: -0.022	inactive: 0.015	inactive: 0	inactive: 0.027	inactive: 0.024	inactive: 0.009	inactive: -0.003	inactive: -0.022	inactive: -0.019	inactive: 0.008
